{
  "sequences": {"note": "Chains of the proteins cited; added tags and fusions are not shown. Lines headed by an entry give the natural chain unless they say otherwise; changes in a name come on top. A line that says so, or that is headed by a name, gives the form on record, which may keep a tag or linker.", "UniProt P17931": "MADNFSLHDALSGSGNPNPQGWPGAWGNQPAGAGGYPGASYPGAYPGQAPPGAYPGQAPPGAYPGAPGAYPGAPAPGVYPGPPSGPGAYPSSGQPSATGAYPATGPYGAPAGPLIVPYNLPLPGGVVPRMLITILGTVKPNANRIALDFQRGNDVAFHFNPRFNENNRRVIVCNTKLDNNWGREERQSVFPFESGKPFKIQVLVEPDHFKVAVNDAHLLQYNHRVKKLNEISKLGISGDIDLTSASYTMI", "full-length galectin-3 D3/9G (P17931, form named)": "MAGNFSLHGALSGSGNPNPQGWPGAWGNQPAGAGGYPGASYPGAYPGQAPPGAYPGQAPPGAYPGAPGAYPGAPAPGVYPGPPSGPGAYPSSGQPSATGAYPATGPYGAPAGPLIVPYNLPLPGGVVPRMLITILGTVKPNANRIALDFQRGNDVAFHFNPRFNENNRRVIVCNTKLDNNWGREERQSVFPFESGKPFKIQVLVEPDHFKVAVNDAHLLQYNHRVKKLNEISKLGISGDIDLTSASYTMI"},
  "source": "paper PMC11538691",
  "key": {"[1]": {"biological_target": "galectin-3 QQ (K199Q/K210Q) (human) (UniProt P17931)", "test": "NMR titration; 1H-15N HSQC chemical shifts (Ala-216 region) and transverse relaxation rate constants R2 compared at 400 and 40 µM protein; one-phase regime; 30 °C; self-association, monomeric against assembled forms; both purified"}, "galectin-3 R129G (human)": {"biological_target": "galectin-3 R129G (human) (UniProt P17931)", "test": "NMR titration; 1H-15N HSQC chemical shifts (Ala-216 region) and transverse relaxation rate constants R2 compared at 400 and 40 µM protein; one-phase regime; 30 °C; self-association, monomeric against assembled forms; both purified"}, "galectin-3 K210E (human)": {"biological_target": "galectin-3 K210E (human) (UniProt P17931)", "test": "NMR titration; 1H-15N HSQC chemical shifts (Ala-216 region) and transverse relaxation rate constants R2 compared at 400 and 40 µM protein; one-phase regime; 30 °C; self-association, monomeric against assembled forms; both purified"}, "galectin-3 K210Q (human)": {"biological_target": "galectin-3 K210Q (human) (UniProt P17931)", "test": "NMR titration; 1H-15N HSQC chemical shifts (Ala-216 region) and transverse relaxation rate constants R2 compared at 400 and 40 µM protein; one-phase regime; 30 °C; self-association, monomeric against assembled forms; both purified"}, "galectin-3 K199Q (human)": {"biological_target": "galectin-3 K199Q (human) (UniProt P17931)", "test": "NMR titration; 1H-15N HSQC chemical shifts (Ala-216 region) and transverse relaxation rate constants R2 compared at 400 and 40 µM protein; one-phase regime; 30 °C; self-association, monomeric against assembled forms; both purified"}, "galectin-3 K199E (human)": {"biological_target": "galectin-3 K199E (human) (UniProt P17931)", "test": "NMR titration; 1H-15N HSQC chemical shifts (Ala-216 region) and transverse relaxation rate constants R2 compared at 400 and 40 µM protein; one-phase regime; 30 °C; self-association, monomeric against assembled forms; both purified"}, "[2]": {"biological_target": "galectin-3 EE (K199E/K210E) (human) (UniProt P17931)", "test": "NMR titration; 1H-15N HSQC chemical shifts (Ala-216 region) and transverse relaxation rate constants R2 compared at 400 and 40 µM protein; one-phase regime; 30 °C; self-association, monomeric against assembled forms; both purified"}, "[3]": {"biological_target": "full-length galectin-3 D3/9G (human) (UniProt P17931)", "test": "NMR titration; 1H-15N HSQC chemical shifts (Ala-216 region) of D3/9G against wild type and CRD-only at 40 µM and 200 µM protein; one-phase regime; 30 °C; both purified"}, "[4]": {"biological_target": "galectin-3 GQQ (R129G/K199Q/K210Q) (human) (UniProt P17931)", "test": "NMR titration; 1H-15N HSQC chemical shifts (Ala-216 region) and transverse relaxation rate constants R2 compared at 400 and 40 µM protein; one-phase regime; 30 °C; self-association, monomeric against assembled forms; both purified"}, "[5]": {"biological_target": "galectin-3 GEE (R129G/K199E/K210E) (human) (UniProt P17931)", "test": "NMR titration; 1H-15N HSQC chemical shifts (Ala-216 region) and transverse relaxation rate constants R2 compared at 400 and 40 µM protein; one-phase regime; 30 °C; self-association, monomeric against assembled forms; both purified"}},
  "note": "These are yes or no findings as the source states them, for the method shown. Some entries that bind do so weakly or less than the wild type.",
  "data": [
    {"substance": "galectin-3 QQ (K199Q/K210Q) (from UniProt P17931 1-250)", "values": [
      {"measurement": "binding", "setting": "[1]", "value": "binds weakly"}
    ]},
    {"substance": "galectin-3 R129G (from UniProt P17931 1-250)", "values": [
      {"measurement": "binding", "setting": "galectin-3 R129G (human)", "value": "binds"}
    ]},
    {"substance": "galectin-3 K210E (from UniProt P17931 1-250)", "values": [
      {"measurement": "binding", "setting": "galectin-3 K210E (human)", "value": "binds weakly"}
    ]},
    {"substance": "galectin-3 K210Q (from UniProt P17931 1-250)", "values": [
      {"measurement": "binding", "setting": "galectin-3 K210Q (human)", "value": "binds"}
    ]},
    {"substance": "galectin-3 K199Q (from UniProt P17931 1-250)", "values": [
      {"measurement": "binding", "setting": "galectin-3 K199Q (human)", "value": "binds"}
    ]},
    {"substance": "galectin-3 K199E (from UniProt P17931 1-250)", "values": [
      {"measurement": "binding", "setting": "galectin-3 K199E (human)", "value": "binds weakly"}
    ]},
    {"substance": "galectin-3 EE (K199E/K210E) (from UniProt P17931 1-250)", "values": [
      {"measurement": "binding", "setting": "[2]", "value": "binds weakly"}
    ]},
    {"substance": "full-length galectin-3 D3/9G (from UniProt P17931 1-250)", "values": [
      {"measurement": "binding", "setting": "[3]", "value": "binds"}
    ]},
    {"substance": "galectin-3 GQQ (R129G/K199Q/K210Q) (from UniProt P17931 1-250)", "values": [
      {"measurement": "binding", "setting": "[4]", "value": "binds weakly"}
    ]},
    {"substance": "galectin-3 GEE (R129G/K199E/K210E) (from UniProt P17931 1-250)", "values": [
      {"measurement": "binding", "setting": "[5]", "value": "binds weakly"}
    ]}
  ]
}
